In patent US20160200804A1:
Results are given in words; binding and its absence hold for the method and conditions named. Binding seen in cells or lysates may run through a third protein. Some results given as binding are weak or reduced against the parent protein; the word gives no strength.

By UniProt entry, the sequences of proteins in these tests, tags left out. Where a name states a change or a piece, a line headed by the entry shows the natural chain unless it says otherwise. Residues count along the entry.
UniProt P05787: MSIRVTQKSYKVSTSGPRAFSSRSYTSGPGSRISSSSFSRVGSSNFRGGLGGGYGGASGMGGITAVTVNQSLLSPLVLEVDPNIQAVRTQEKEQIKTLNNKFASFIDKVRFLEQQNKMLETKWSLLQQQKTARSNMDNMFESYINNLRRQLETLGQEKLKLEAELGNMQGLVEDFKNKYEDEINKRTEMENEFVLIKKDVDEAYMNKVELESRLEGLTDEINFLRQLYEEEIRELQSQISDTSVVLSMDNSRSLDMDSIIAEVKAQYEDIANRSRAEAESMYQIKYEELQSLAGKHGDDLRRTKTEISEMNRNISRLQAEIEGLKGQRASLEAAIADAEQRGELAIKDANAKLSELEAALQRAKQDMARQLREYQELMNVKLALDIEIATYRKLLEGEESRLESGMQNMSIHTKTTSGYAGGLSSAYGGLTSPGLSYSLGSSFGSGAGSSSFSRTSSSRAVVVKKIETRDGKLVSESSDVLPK
UniProt P07355, residues 2-339: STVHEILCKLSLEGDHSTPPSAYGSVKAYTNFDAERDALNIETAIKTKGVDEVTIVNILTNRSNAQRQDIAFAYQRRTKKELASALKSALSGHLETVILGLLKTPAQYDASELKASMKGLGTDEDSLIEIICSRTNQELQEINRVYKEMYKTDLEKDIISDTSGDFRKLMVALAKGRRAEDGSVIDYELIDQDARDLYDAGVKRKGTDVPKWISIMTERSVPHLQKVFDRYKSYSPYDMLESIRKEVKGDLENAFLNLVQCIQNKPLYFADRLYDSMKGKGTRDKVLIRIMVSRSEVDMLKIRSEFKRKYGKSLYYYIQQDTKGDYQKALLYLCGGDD

Tests used:
[1] = biological target: cytokeratin-8 (CK8) (human) (UniProt P05787); test: reciprocal co-immunoprecipitation from ACT1 lysate (anti-keratin-8 and anti-annexin-A2 beads) with western blot; annexin-A2 also sequenced by MS/MS in the keratin-8 immunoprecipitate
[2] = biological target: cytokeratin-8 (CK8) (human) (UniProt P05787); test: co-immunoprecipitation

## annexin-A2 (from UniProt P07355 2-339)
[1]
  binding: binds
[2]
  binding: binds
